From paper PMC11787368
Results are given in words; binding and its absence hold for the method and conditions named. Binding seen in cells or lysates may run through a third protein. Some results given as binding are weak or reduced against the parent protein; the word gives no strength. Sequences can lack the tags named with a protein.

The chains behind the UniProt entries cited, without tags or fusion partners. Where a name states a change or a piece, a line headed by the entry shows the natural chain unless it says otherwise. A line that says so, or that is headed by a name, gives the form on record, which may keep a tag or linker. Residues count along the entry.
HT-RBPJ-WT (wild-type RBPJ fused to an N-terminal HaloTag) (P31266, residues 53-474): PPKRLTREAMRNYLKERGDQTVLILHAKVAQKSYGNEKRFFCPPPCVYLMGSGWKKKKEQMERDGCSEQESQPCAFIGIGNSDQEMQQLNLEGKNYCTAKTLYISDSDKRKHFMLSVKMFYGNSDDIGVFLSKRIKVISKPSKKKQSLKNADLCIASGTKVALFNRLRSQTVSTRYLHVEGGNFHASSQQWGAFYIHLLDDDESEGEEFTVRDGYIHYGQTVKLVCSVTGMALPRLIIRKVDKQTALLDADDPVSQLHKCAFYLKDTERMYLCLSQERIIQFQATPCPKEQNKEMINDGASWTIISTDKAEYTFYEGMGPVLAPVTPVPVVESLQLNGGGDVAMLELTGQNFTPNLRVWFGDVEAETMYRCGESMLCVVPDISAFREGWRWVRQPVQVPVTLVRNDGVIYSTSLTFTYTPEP
HT-RBPJ-KRS/EHD (RBPJ K195E/R218H/S221D with N-terminal HaloTag) (P31266, form named): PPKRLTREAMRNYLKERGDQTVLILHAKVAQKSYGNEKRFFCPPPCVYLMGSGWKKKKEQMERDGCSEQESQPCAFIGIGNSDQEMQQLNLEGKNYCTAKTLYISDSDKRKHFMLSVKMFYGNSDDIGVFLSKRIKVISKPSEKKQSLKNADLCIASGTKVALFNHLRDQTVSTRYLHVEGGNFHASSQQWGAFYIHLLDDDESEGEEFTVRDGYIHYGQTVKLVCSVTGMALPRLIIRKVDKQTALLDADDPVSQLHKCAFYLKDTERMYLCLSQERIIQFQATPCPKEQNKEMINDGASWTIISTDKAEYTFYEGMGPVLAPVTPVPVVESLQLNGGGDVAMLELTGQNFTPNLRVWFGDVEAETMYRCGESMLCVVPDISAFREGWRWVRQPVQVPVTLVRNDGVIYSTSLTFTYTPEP

Biological target: T1, Flag tagged SHARP (aa 2770-3127) (UniProt Q96T58)
T1 sequence: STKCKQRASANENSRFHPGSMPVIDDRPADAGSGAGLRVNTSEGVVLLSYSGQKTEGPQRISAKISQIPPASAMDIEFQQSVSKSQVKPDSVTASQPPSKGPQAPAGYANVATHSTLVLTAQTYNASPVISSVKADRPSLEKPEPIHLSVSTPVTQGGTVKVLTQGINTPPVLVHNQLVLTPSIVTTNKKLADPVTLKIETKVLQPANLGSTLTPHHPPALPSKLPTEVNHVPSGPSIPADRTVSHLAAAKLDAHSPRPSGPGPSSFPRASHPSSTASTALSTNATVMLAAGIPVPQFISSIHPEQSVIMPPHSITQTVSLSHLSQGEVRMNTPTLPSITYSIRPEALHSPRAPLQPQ
Assay: co-IP; HEK293 cells co-transfected with Halo-tagged RBPJ variant and Flag-tagged NICD or Flag-tagged SHARP (aa 2770-3127); lysed 24 h after transfection in CHAPS lysis buffer; lysate incubated with anti-Flag (M2) agarose beads overnight at 4 °C; six washes; SDS-PAGE and blot

Substance | binding
HT-RBPJ-KRS/EHD (RBPJ K195E/R218H/S221D with N-terminal HaloTag) (from UniProt P31266 53-474) | binds
HT-RBPJ-WT (wild-type RBPJ fused to an N-terminal HaloTag) (from UniProt P31266 53-474) | binds
